For the test, the system named is Bacillus subtilis. Briefly: Antibacterial activity against Bacillus subtilis 1A754 by agar diffusion assay. In kind it is functional. (In general: Agar diffusion results depend on both activity and mobility in agar.)

Structures are written as SMILES. In brackets after ≈: the same amount, converted by molar mass.

As for `CN[C@H](CC(C)C)C(=O)N[C@H]1C(=O)N[C@@H](CC(N)=O)C(=O)N[C@H]2C(=O)N[C@H]3C(=O)N[C@H](C(=O)N[C@H](C(=O)O)c4cc(O)cc(O)c4-c4cc3ccc4O)[C@H](O)c3ccc(c(Cl)c3)Oc3cc2cc(c3O[C@@H]2O[C@H](CO)[C@@H](O)[C@H](O)[C@H]2O[C@H]2C[C@](C)(N)[C@H](O)[C@H](C)O2)Oc2ccc(cc2Cl)[C@H]1O` [VANCOMYCIN], inhibition of growth (MIC) required 0.5 µg/mL (≈ 0.345 µM).

These data come from ChEMBL document CHEMBL1156892, “Synthesis and in vitro evaluation of bisphosphonated glycopeptide prodrugs for the treatment of osteomyelitis” (Bioorg Med Chem Lett, 2010).
